Experimental data reported in paper PMC9606255.
These are yes or no findings as the source states them, for the method shown. Binding seen in cells or lysates may run through a third protein. Some results given as binding are weak or reduced against the parent protein; the word gives no strength.

The chains behind the UniProt entries cited, without tags or fusion partners.
UniProt Q9C0C2: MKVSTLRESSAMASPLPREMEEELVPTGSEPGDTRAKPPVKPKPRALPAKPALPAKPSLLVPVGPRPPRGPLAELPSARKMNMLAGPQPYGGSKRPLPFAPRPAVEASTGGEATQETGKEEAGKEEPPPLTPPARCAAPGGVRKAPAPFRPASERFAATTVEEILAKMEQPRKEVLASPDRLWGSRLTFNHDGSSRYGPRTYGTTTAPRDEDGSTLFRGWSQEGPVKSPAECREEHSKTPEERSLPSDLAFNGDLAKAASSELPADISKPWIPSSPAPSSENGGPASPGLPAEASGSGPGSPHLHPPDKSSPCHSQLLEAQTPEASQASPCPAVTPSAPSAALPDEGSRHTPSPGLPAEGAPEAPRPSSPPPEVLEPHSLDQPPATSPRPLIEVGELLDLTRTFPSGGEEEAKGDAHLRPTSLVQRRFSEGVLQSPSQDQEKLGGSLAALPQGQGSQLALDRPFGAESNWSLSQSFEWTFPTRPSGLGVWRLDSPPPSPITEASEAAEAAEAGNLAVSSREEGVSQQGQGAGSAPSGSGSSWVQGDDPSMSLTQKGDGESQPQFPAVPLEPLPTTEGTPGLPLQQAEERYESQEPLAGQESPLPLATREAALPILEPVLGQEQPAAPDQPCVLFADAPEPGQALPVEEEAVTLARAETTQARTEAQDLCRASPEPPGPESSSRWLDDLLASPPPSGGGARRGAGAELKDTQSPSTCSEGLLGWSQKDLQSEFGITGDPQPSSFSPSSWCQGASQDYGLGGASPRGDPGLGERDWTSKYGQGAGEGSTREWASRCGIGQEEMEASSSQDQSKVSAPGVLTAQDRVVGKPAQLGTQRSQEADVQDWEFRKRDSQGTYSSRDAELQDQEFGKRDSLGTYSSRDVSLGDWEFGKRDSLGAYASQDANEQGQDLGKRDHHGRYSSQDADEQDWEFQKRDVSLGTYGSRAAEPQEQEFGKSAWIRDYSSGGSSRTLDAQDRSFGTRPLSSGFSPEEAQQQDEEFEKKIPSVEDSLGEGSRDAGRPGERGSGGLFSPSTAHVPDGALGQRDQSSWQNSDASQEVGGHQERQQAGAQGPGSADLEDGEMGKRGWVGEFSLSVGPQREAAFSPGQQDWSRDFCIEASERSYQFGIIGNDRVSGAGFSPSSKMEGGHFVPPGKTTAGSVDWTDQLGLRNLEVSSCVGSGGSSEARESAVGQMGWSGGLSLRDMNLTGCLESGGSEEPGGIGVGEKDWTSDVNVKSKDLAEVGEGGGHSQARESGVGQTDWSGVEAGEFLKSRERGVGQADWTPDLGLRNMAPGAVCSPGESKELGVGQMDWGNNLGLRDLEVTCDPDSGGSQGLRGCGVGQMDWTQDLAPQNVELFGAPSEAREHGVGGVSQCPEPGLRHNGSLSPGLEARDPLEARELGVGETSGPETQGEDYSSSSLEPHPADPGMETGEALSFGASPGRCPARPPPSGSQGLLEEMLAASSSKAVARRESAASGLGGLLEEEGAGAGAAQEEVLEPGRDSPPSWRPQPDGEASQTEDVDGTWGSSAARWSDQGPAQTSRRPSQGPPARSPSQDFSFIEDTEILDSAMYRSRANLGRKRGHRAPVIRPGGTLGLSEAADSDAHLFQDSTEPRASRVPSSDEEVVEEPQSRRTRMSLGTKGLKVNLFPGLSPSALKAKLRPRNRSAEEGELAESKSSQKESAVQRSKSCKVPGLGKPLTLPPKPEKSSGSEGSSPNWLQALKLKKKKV
UniProt P35222: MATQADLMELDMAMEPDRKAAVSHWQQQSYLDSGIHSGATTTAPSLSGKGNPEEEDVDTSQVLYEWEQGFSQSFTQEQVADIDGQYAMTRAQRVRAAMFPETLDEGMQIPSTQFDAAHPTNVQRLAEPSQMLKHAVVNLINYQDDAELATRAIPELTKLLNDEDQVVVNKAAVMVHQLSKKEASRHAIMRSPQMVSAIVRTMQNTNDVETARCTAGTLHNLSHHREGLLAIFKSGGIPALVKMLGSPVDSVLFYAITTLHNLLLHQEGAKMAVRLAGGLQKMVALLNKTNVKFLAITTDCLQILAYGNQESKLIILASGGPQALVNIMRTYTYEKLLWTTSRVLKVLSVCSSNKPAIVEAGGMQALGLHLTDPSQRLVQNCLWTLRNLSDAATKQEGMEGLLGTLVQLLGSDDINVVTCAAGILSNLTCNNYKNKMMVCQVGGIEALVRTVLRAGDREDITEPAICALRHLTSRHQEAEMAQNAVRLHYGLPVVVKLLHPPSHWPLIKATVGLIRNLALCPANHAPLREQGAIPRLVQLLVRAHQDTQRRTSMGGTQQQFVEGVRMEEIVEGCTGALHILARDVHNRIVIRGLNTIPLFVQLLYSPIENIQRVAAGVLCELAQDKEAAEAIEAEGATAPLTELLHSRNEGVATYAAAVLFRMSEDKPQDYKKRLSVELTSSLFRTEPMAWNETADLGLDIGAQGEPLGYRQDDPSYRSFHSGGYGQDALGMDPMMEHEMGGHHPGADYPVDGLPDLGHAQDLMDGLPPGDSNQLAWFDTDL

Key:
[1] = target: TAB182 (human (endogenous in TE-10 and KYSE-150)) (UniProt Q9C0C2); test: co-IP; ESCC cell lysates (M-PER buffer) incubated with TAB182, FHL2 or β-catenin antibodies at 4 °C overnight, protein G beads, washed four times with 0.1% Triton-PBS, western blot; also in cells with TAB182 knocked down, over-expressed or expressing TAB182-Δ1
[2] = target: TAB182 (human (endogenous in TE-10 and KYSE-150)) (UniProt Q9C0C2); test: co-IP; HEK293T cells, co-IP of TAB182, FHL2 and β-catenin (Fig. S2A)
[3] = target: TAB182 (human (endogenous in TE-10 and KYSE-150)) (UniProt Q9C0C2); test: co-IP; ESCC cell lysates (M-PER buffer) incubated with TAB182, FHL2 or β-catenin antibodies at 4 °C overnight, protein G beads, washed four times with 0.1% Triton-PBS, western blot; also in cells with TAB182 knocked down, over-expressed or expressing TAB182-Δ1; remark: listed apart in the source
[4] = target: β-catenin (human (endogenous in TE-10 and KYSE-150)) (UniProt P35222); test: as above
[5] = target: β-catenin (human (endogenous in TE-10 and KYSE-150)) (UniProt P35222); test: co-IP; HEK293T cells, co-IP of TAB182, FHL2 and β-catenin (Fig. S2A)

Measured: binding

β-catenin (from UniProt P35222 1-781)
binds: [1] | [2]

B1: four and a half of LIM-only protein 2 (FHL2) (protein, UniProt Q14192 1-279)
chain: MTERFDCHHCNESLFGKKYILREESPYCVVCFETLFANTCEECGKPIGCDCKDLSYKDRHWHEACFHCSQCRNSLVDKPFAAKEDQLLCTDCYSNEYSSKCQECKKTIMPGTRKMEYKGSSWHETCFICHRCQQPIGTKSFIPKDNQNFCVPCYEKQHAMQCVQCKKPITTGGVTYREQPWHKECFVCTACRKQLSGQRFTARDDFAYCLNCFCDLYAKKCAGCTNPISGLGGTKYISFEERQWHNDCFNCKKCSLSLVGRGFLTERDDILCPDCGKDI
not listed: [1]
binds: all other assays above
